In PubChem BioAssay (NCATS):
Inconclusive results, whose numbers are uncertain, are shown with a selection of clear calls. For some assays here: A potency beside an inconclusive call is a rough fit, not a confirmed value. Calls of active or inactive are those of the source. Unless noted, calls follow the shape of the dose curve; as a rule, active = well fitted curve in the direction sought with a large enough effect; inconclusive = small, poorly fitted or top-dose-only effect, or another doubt; inactive = no such curve, though single readings can be large; an effect the other way counts as inactive or inconclusive.

Legend:
[1] = Quantitative High-Throughput drug screen in 47 multiple myeloma cell lines against the NCATS MIPE library collection: JJN3_DSMZ cell viability assay (AID 1918966; also: potency is read from the fitted curve at half-maximal effect; nearly all actives have a fitted effect of over 50% in size); details: JJN3 myeloma cells viability, CellTiter-Glo ATP, 48 h; viability, % of DMSO: at 45.8 µM (top of the series)
Method in brief: (§1)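 Approved and investigational drugs from MIPE 4.0 were added by pin tool to 500 cells per well. After 48 hours at 37C, ATP-based CellTiter-Glo luminescence indicated remaining viability.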

[2] = Quantitative High-Throughput drug screen in 47 multiple myeloma cell lines against the NCATS MIPE library collection: H1112_PLB cell viability assay (AID 1918967; also: nearly all actives have a fitted effect of over 30% in size)
Method in brief: as §1

[3] = Quantitative High-Throughput drug screen in 47 multiple myeloma cell lines against the NCATS MIPE library collection: Karpas25_ECACC cell viability assay (AID 1918968; also: potency is read from the fitted curve at half-maximal effect; nearly all actives have a fitted effect of over 35% in size)
Method in brief: as §1

[4] = Quantitative High-Throughput drug screen in 47 multiple myeloma cell lines against the NCATS MIPE library collection: KMS12BM_JCRB cell viability assay (AID 1918971); also: potency is read from the fitted curve at half-maximal effect; nearly all actives have a fitted effect of over 35% in size
Method in brief: (§2)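 Myeloma cell lines, 500 cells per well, exposed to MIPE 4.0 library compounds for 48 h at 37C, 5% CO2. Viability from ATP by CellTiter-Glo luminescence; normalised to DMSO (100%) and media-only (0%) wells.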

[5] = Quantitative High-Throughput drug screen in 47 multiple myeloma cell lines against the NCATS MIPE library collection: KMS20_JCRB cell viability assay (AID 1918973); details: CellTiter-Glo ATP, 48 h; viability (% of DMSO): at 45.8 µM (top of the series); also: nearly all actives have a fitted effect of over 45% in size
Method in brief: as §1

[6] = Quantitative High-Throughput drug screen in 47 multiple myeloma cell lines against the NCATS MIPE library collection: KMS21BM_JCRB cell viability assay (AID 1918974); also: potency is read from the fitted curve at half-maximal effect
Method in brief: as §1

[7] = Quantitative High-Throughput drug screen in 47 multiple myeloma cell lines against the NCATS MIPE library collection: KMS26_JCRB cell viability assay (AID 1918975); details: KMS26 myeloma cells viability, CellTiter-Glo ATP, 48 h; viability (% of DMSO): at 45.8 µM (top of the series); also: nearly all actives have a fitted effect of over 45% in size
Method in brief: as §2

[8] = Quantitative High-Throughput drug screen in 47 multiple myeloma cell lines against the NCATS MIPE library collection: MMM1_PLB cell viability assay (AID 1918976); also: nearly all actives have a fitted effect of over 35% in size
Method in brief: (§3)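 Cells were exposed to library compounds for 48 hours, after which ATP was measured by CellTiter-Glo. Signal was taken as median relative luminescence units.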

[9] = Quantitative High-Throughput drug screen in 47 multiple myeloma cell lines against the NCATS MIPE library collection: MOLP8_DSMZ cell viability assay (AID 1918977); details: MOLP8 myeloma viability, CellTiter-Glo ATP luminescence, 48 h; viability (% of control): at 45.8 µM (top of the series); also: potency is read from the fitted curve at half-maximal effect; nearly all actives have a fitted effect of over 45% in size
Method in brief: as §3

[10] = Quantitative High-Throughput drug screen in 47 multiple myeloma cell lines against the NCATS MIPE library collection: OCIMY1_PLB cell viability assay (AID 1918979); also: potency is read from the fitted curve at half-maximal effect; nearly all actives have a fitted effect of over 35% in size
Method in brief: as §3

[11] = Quantitative High-Throughput drug screen in 47 multiple myeloma cell lines against the NCATS MIPE library collection: MM1R_ATCC cell viability assay (AID 1918981); also: nearly all actives have a fitted effect of over 35% in size
Method in brief: as §3

[12] = Quantitative High-Throughput drug screen in 47 multiple myeloma cell lines against the NCATS MIPE library collection: LP1_DSMZ cell viability assay (AID 1918982)
Method in brief: as §3

[13] = Quantitative High-Throughput drug screen in 47 multiple myeloma cell lines against the NCATS MIPE library collection: KMS28PE_JCRB cell viability assay (AID 1918983); also: nearly all actives have a fitted effect of over 35% in size
Method in brief: as §3

[14] = Quantitative High-Throughput drug screen in 47 multiple myeloma cell lines against the NCATS MIPE library collection: L363_DSMZ cell viability assay (AID 1918984); details: L363 myeloma viability, CellTiter-Glo ATP luminescence, 48 h; viability (% of control): at 45.8 µM (top of the series); also: potency is read from the fitted curve at half-maximal effect; nearly all actives have a fitted effect of over 40% in size
Method in brief: as §3

[15] = Quantitative High-Throughput drug screen in 47 multiple myeloma cell lines against the NCATS MIPE library collection: KMS34_JCRB cell viability assay (AID 1918985); also: nearly all actives have a fitted effect of over 40% in size
Method in brief: as §3

[16] = Quantitative High-Throughput drug screen in 47 multiple myeloma cell lines against the NCATS MIPE library collection: OCIMY5_PLB cell viability assay (AID 1918988);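 also: 100% = DMSO-treated wells and 0% = wells with media alone; nearly all actives have a fitted effect of over 65% in size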
Method in brief: as §3

[17] = Quantitative High-Throughput drug screen in 47 multiple myeloma cell lines against the NCATS MIPE library collection: OPM1_PLB cell viability assay (AID 1918989); also: nearly all actives have a fitted effect of over 40% in size
Method in brief: as §3

[18] = Quantitative High-Throughput drug screen in 47 multiple myeloma cell lines against the NCATS MIPE library collection: XG1_PLB cell viability assay (AID 1919866); also: nearly all actives have a fitted effect of over 35% in size
Method in brief: as §3

[19] = Quantitative High-Throughput drug screen in 47 multiple myeloma cell lines against the NCATS MIPE library collection: VP6_DJ cell viability assay (AID 1919867); also: potency is read from the fitted curve at half-maximal effect; nearly all actives have a fitted effect of over 40% in size
Method in brief: as §3

[20] = Quantitative High-Throughput drug screen in 47 multiple myeloma cell lines against the NCATS MIPE library collection: UTMC2_PLB cell viability assay (AID 1919868); details: CellTiter-Glo ATP luminescence, 48 h; viability (% of DMSO control): at 45.8 µM (top of the series); also: potency is read from the fitted curve at half-maximal effect; nearly all actives have a fitted effect of over 55% in size
Method in brief: as §3

[21] = Quantitative High-Throughput drug screen in 47 multiple myeloma cell lines against the NCATS MIPE library collection: OPM2_DSMZ cell viability assay (AID 1919872); also: nearly all actives have a fitted effect of over 30% in size
Method in brief: as §1

[22] = qHTS for identification of novel therapeutic agents for treatment of microphthalmiaassociated transcription factor (MiT) renal cell carcinoma (RCC) (AID 1963991; calls by dose curve; also: potency is read from the fitted curve at half-maximal effect); details: TFE3-RCC UOK109 viability, CellTiter-Glo, 48 h; active = Z-AUC below -0.8 in all three lines
Method in brief: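 UOK109/UOK124/UOK145 (TFE3 fusions, three partners); 500 cells/well; MIPE v4.0, 1912 cpds, 11 conc.; 48 h, 37 C; CellTiter-Glo, 15 min RT; lum. Norm.: DMSO 100%, empty 0%.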

HaCat = experiment: Cytotoxic Profiling of Annotated Libraries Using Quantitative High-Throughput Screening (AID 1296008); details: Five cell lines viability, CellTiter-Glo ATP luminescence, 48-72 h; max response: stronger effect = lower value; also: % is scaled to controls: 0 for no effect and ±100 for the full control effect; nearly all actives have a fitted effect of over 60% in size
Method in brief: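 Cells exposed to compounds for 48 or 72 hr at 37 degrees Celsius. Viability read as ATP-coupled luminescence with CellTiter-Glo after 10 min at room temperature.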

O=C(O)C1CCCN(CCC=C(c2ccccc2)c2ccccc2)C1 (stereo not drawn)
inconclusive: Potency [1] 7430 nM [cytotoxic, full curve, poor fit] | Potency [3] 10500 nM [cytotoxic, single point] | Potency [4] 8330 nM [cytotoxic, partial curve, poor fit] | Potency [6] 332 nM [cytotoxic, full curve, poor fit] | Potency [10] 1 nM | Potency [12] 1.9 nM [cytotoxic, full curve, poor fit] | Potency [14] 16.6 nM [cytotoxic, full curve, poor fit] | Potency [19] 1870 nM [cytotoxic, partial curve, poor fit] | Potency [20] 4.2 nM [cytotoxic, full curve, poor fit] | Potency [22] 2640 nM
active: Potency [9] 5.9 nM
inactive: Potency [2] | Potency [5] | Potency [7] | Potency [8] | Potency [11] | Potency [13] | Potency [15] | Potency [16] | Potency [17] | Potency [18] | Potency [21] | max response (HaCat) -1.89%
